# Assay results from patent US12350403B2, “Methods of making therapeutic polymeric material” (priority 2015, dated 2025).
# Some results were stated once for a whole list of compounds, not compound by compound.
# Experiment: In vitro release of rifampin and vancomycin from layered RV-PE into PBS at 37° C.
# Type: physicochemical
# Details: 3.3 wt % rifampin and 6.7 wt % vancomycin-blended UHMWPE, 1 mm layer, PBS 37° C.
structure (smiles),measurement,value
CO[C@H]1/C=C/O[C@@]2(C)Oc3c(C)c(O)c4c(O)c(c(/C=N/N5CCN(C)CC5)c(O)c4c3C2=O)NC(=O)/C(C)=C\C=C\[C@H](C)[C@H](O)[C@@H](C)[C@@H](O)[C@@H](C)[C@H](OC(C)=O)[C@@H]1C [rifampin],time during which release rate was higher than the minimum release rate,at least 36 weeks
